Counter-ions that a name gives are not always drawn.
Experiments:
[1] = Membrane potential measurement across skin in H-shaped Franz cell; ion mobility relative to chloride; assay type: physicochemical, mouse; settings: Lid-HCl 185 mM (5% Lidocaine); Cl− = 1
Excerpt: The electric potential difference shown here is between the outside and the inside of the skin. The “+/−” notation is opposite to that shown in Equation 12. […] It is thought that the membrane potential may be generated due to the influence of pH changes in solution. At 0.12 M, an electric potential difference is present that tends to promote migration of cations in the direction from the outside of the skin toward the inside due to an electric field within the skin. At other concentrations, however, an oppositely signed electric potential gradient occurs, which would tend to hamper the movement of Procaterol cations into the skin. It is thought that the electric potential differences develop due to the influence of protons, Procaterol cations, and chloride ions. The mobility of the Procaterol cations with respect to the mobility of chloride ions can be obtained based on the results of the membrane electrical potential measurement. […] These values have been used to make calculations. […] It can be seen that the migration speed of Procaterol ions is slow compared to that of chloride ions.

[2] = Delivery of aqueous drug solutions through skin in Franz cell (amount over time, flux)
Excerpt: An H-shaped Franz cell (FIG. 7) was used to evaluate the theory described herein. As shown, the Franz cell 28 includes a donor chamber 30a and a receiver chamber 30b. The donor chamber 30a contains an ionic active agent, which permeates through a membrane 32 to reach the receiver chamber 30b. A working electrode 34a was inserted in the donor chamber 30a, while a counter electrode 34b (i.e., reference electrode) was inserted in the receptor chamber 30b. It is possible to measure the electrical potential difference induced by the ionic diffusion/permeation and the concentration gradient thus established. […]

[3] = Computed membrane potential and ion flux (Eq. 11 Goldman equation, Eq. 12); settings: Lidocaine, relative to Cl−
Excerpt: Further, it is necessary to linearly approximate the concentration gradient or the electric potential gradient to solve equation 9. […] The potential difference across the skin has been considered for a single component system. […] Thus, a film potential can be calculated provided that the ion mobility (omega) and concentration (c) within the skin are known. The ion transport speed can then be found from the calculated film potential.

In the case of `CCN(CC)CC(=O)Nc1c(C)cccc1C` [Lidocaine, Lidocaine HCl], the “Mobility of ion (Lidocaine cation with respect to chloride ions)” value [1] is reported as 0.67, the Flux ([2]; 0.059 M Lidocaine HCl) is reported as 3.8 μg h^−1 cm^−2 and the “Amount of Lidocaine delivered” value ([2]; 0.059 M, time 0 hr) is reported as 0. For the same compound, the “Amount of Lidocaine delivered” value ([2]; 0.059 M, time 1 hr) was 122.5, the “Amount of Lidocaine delivered” value ([2]; 0.059 M, time 3 hr) was 367.5 and the “Amount of Lidocaine delivered” value ([2]; 0.059 M, time 5 hr) was 612.4. For the same compound, the Flux ([2]; 0.148 M Lidocaine HCl) was 1.8 μg h^−1 cm^−2, the “Amount of Lidocaine delivered” value ([2]; 0.148 M, time 0 hr) was 0 and the “Amount of Lidocaine delivered” value ([2]; 0.148 M, time 1 hr) was 57.4. For the same compound, the “Amount of Lidocaine delivered” value ([2]; 0.148 M, time 3 hr) was 172.2, the “Amount of Lidocaine delivered” value ([2]; 0.148 M, time 5 hr) was 287.0 and the Flux ([2]; 0.296 M Lidocaine HCl) was 0.7 μg h^−1 cm^−2. For the same compound, the “Amount of Lidocaine delivered” value ([2]; 0.296 M, time 0 hr) was 0, the “Amount of Lidocaine delivered” value ([2]; 0.296 M, time 1 hr) was 23.9 and the “Amount of Lidocaine delivered” value ([2]; 0.296 M, time 3 hr) was 71.8. The “Amount of Lidocaine delivered” value ([2]; 0.296 M, time 5 hr) was 119.6, the Mobility ratio w ([3]; printed concentration 0.000059 mol cm^3) was 0.45 and the Mobility ratio w ([3]; printed concentration 0.000148 mol cm^3) was 0.67. For the same compound, the Mobility ratio w ([3]; printed concentration 0.000296 mol cm^3) was 2.15.

— patent US20080286349A1, “SYSTEMS, DEVICES, AND METHODS FOR PASSIVE TRANSDERMAL DELIVERY OF ACTIVE AGENTS TO A BIOLOGICAL INTERFACE” (priority 2007, published 2008)
